Results are given in words; binding and its absence hold for the method and conditions named. In cells and extracts the contact can be indirect. Binding calls can cover weak binding; strength is not graded here.
B1: Staufen (protein, UniProt P25159 1-1026)
chain: MQHNVHAARPAPHIRAAHHHSHSHAHMHLHPGMEQHLGPSLQQQQQPPPPPQQPPHRDLHARLNHHHLHAQQQQQQQTSSNQAGAVAAAGAAYHHGNINSNSGSNISSNSNQMQKIRQQHQHLSSSNGLLGNQPPGPPPQAFNPLAGNPAALAYNQLPPHPPHHMAAHLGSYAAPPPHYYMSQAKPAKYNHYGSNANSNSGSNNSNSNYAPKAILQNTYRNQKVVVPPVVQEVTPVPEPPVTTNNATTNSTSNSTVIASEPVTQEDTSQKPETRQEPASADDHVSTGNIDATGALSNEDTSSSGRGGKDKTPMCLVNELARYNKITHQYRLTEERGPAHCKTFTVTLMLGDEEYSADGFKIKKAQHLAASKAIEETMYKHPPPKIRRSEEGGPMRTHITPTVELNALAMKLGQRTFYLLDPTQIPPTDSIVPPEFAGGHLLTAPGPGMPQPPPPPAYALRQRLGNGFVPIPSQPMHPHFFHGPGQRPFPPKFPSRFALPPPLGAHVHHGPNGPFPSVPTPPSKITLFVGKQKFVGIGRTLQQAKHDAAARALQVLKTQAISASEEALEDSMDEGDKKSPISQVHEIGIKRNMTVHFKVLREEGPAHMKNFITACIVGSIVTEGEGNGKKVSKKRAAEKMLVELQKLPPLTPTKQTPLKRIKVKTPGKSGAAAREGSVVSGTDGPTQTGKPERRKRLNPPKDKLIDMDDADNPITKLIQLQQTRKEKEPIFELIAKNGNETARRREFVMEVSASGSTARGTGNSKKLAKRNAAQALFELLEAVQVTPTNETQSSEECSTSATMSAVTAPAVEATAEGKVPMVATPVGPMPGILILRQNKKPAKKRDQIVIVKSNVESKEEEANKEVAVAAEENSNNSANSGDSSNSSSGDSQATEAASESALNTSTGSNTSGVSSNSSNVGANTDGNNHAESKNNTESSSNSTSNTQSAGVHMKEQLLYLSKLLDFEVNFSDYPKGNHNEFLTIVTLSTHPPQICHGVGKSSEESQNDAASNALKILSKLGLNNAMK
B2: BicD (protein, UniProt P16568 1-782)
chain: MSSASNNGPSADQSVQDLQMEVERLTRELDQVSSASAQSAQYGLSLLEEKSALQQKCEELETLYDNTRHELDITQEALTKFQTSQKVTNKTGIEQEDALLNESAARETSLNLQIFDLENELKQLRHELERVRNERDRMLQENSDFGRDKSDSEADRLRLKSELKDLKFRETRMLSEYSELEEENISLQKQVSSLRSSQVEFEGAKHEIRRLTEEVELLNQQVDELANLKKIAEKQMEEALETLQGEREAKYALKKELDGHLNRESMYHISNLAYSIRSNMEDNASNNSDGEEENLALKRLEADLSTELKSPDGTKCDLFSEIHLNELKKLEKQLESMESEKTHLTANLREAQTSLDKSQNELQNFMSRLALLAAHVDALVQLKKQIDVKEQGKEGGQKKDELEQQLRALISQYANWFTLSAKEIDGLKTDIAELQKGLNYTDATTTLRNEVTNLKNKLLATEQKSLDLQSDVQTLTHISQNAGQSLGSARSTLVALSDDLAQLYHLVCTVNGETPTRVLLDHKTDDMSFENDSLTAIQSQFKSDVFIAKPQIVEDLQGLADSVEIKKYVDTVSDQIKYLKTAVEHTIDMNKHKIRSEGGDALEKVNTEEMEELQEQIVKLKSLLSVKREQIGTLRNVLKSNKQTAEVALTNLKSKYENEKIIVSDTMSKLRNELRLLKEDAATFSSLRAMFAARCEEYVTQVDDLNRQLEAAEEEKKTLNQLLRLAVQQKLALTQRLEEMEMDREMRHVRRPMPAQRGTSGKSSFSTRPSSRNPASSNANPF
B3: dynein (detected as Dic) (protein, UniProt Q24246 1-663)
chain: MDRKAELERKKAKLAALREEKDRRRREKEIKDMEEAAGRIGGGAGIDKDQRKDLDEMLSSLGVAPVSEVLSSLSSVNSMTSDNSNTQTPDASLQATVNGQSGGKKQPLNLSVYNVQATNIPPKETLVYTKQTQTTSTGGGNGDVLSCHSSPLSGYMEDWWRPRKAHATDYYDEYNLNPGLEWEDEFTDDEESSLQNLGNGFTSKLPPGYLTHGLPTVKDVAPAITPLEIKKETEVKKEVNELSEEQKQMIILSENFQRFVVRAGRVIERALSENVDIYTDYIGGGDSEEANDERSHARLSLNRVFYDERWSKNRCITSMDWSTHFPELVVGSYHNNEESPNEPDGVVMVWNTKFKKSTPEDVFHCQSAVMSTCFAKFNPNLILGGTYSGQIVLWDNRVQKRTPIQRTPLSAAAHTHPVYCLQMVGTQNAHNVISISSDGKLCSWSLDMLSQPQDTLELQQRQSKAIAITSMAFPANEINSLVMGSEDGYVYSASRHGLRSGVNEVYERHLGPITGISTHYNQLSPDFGHLFLTSSIDWTIKLWSLKDTKPLYSFEDNSDYVMDVAWSPVHPALFAAVDGSGRLDLWNLNQDTEVPTASIVVAGAPALNRVSWTPSGLHVCIGDEAGKLYVYDVAENLAQPSRDEWSRFNTHLSEIKMNQSDEV

Target: EmGFP-Tm1-I (DmTropomyosin1-I/C isoform, EmeraldGFP fusion) (Drosophila melanogaster)
Experiment: co-IP

Binder | binding
B1 | binds
B2 | no binding
B3 | no binding

— paper doi:10.1101/067876
